{"source": "paper PMC12866690", "key": {"[1]": {"target": "Syntaxin 3B (mouse (endogenous in retina))", "assay": "co-IP; anti-STX3B antibody and protein G beads; retinal lysates of light- and dark-adapted P30 WT mice; 20 mM HEPES pH 7.4, 150 mM NaCl, 10 mM CHAPS; 200 µg protein; immunoblot"}, "[2]": {"target": "GST-tagged STX3 lacking the transmembrane domain", "assay": "pull-down; GST-STX3-dtm on Glutathione Sepharose beads; precleared retinal lysates of light- and dark-adapted P30 WT and Nrl-/- mice; 10 mM CHAPS, 5 mM EDTA in 1xPBS pH 7.3; overnight at 4 °C; immunoblot; only the target purified"}}, "note": "Results are given in words; binding and its absence hold for the method and conditions named. Binding seen in cells or lysates may run through a third protein. A result given as binding can be weak or reduced; the word gives no strength."}
{"binder": "cone arrestin 4 (protein, UniProt Q9EQP6 1-381) MSTVFKKTSSNGKFSIYLGKRDFVDDVDTVEPIDGVVLVDPEYLEGRKLFVRLTCAFRYGRDDLDVIGLTFRKDLYVQTKQVAPAEPTSIQGPLTALQERLLHKLGVNAYPFTLQMVANLPCSVTLQPGPEDSGKPCGVDFEVKSFCAENLEEKIPKSDSVQLVVRKVQFSALEPGPGPSAQTIRSFFLSSQPLQLQAWMDREVHYHGEAISVHVSINNYTNKVIRRIKIAVVQTTDVVLYSLDKYTKTVFVQEFTETVAANSSFSQTFAVTPLLAANCQKQGLALDGKLKHEDTNLASSTILRPGMNKELLGILVSYKVRVNLVVSYGGILGGLPASDVGVELPVILIHPKPSPGERAVATSSEDIVIEEFMQHNSQTQS", "values": [{"measurement": "binding", "setting": "[1]", "value": "binds"}, {"measurement": "binding", "setting": "[2]", "value": "binds"}]}
